Source: publication PMC10483240
No constants are given. Whether binding was seen depends on the method and setting. Binding seen in cells or lysates may run through a third protein. A result given as binding can be weak or reduced; the word gives no strength.

Sequences of proteins named here, by UniProt entry; tags and fusion partners are left off. A change or cut given only in a name is not applied to a line headed by its entry.
UniProt Q9WUU7: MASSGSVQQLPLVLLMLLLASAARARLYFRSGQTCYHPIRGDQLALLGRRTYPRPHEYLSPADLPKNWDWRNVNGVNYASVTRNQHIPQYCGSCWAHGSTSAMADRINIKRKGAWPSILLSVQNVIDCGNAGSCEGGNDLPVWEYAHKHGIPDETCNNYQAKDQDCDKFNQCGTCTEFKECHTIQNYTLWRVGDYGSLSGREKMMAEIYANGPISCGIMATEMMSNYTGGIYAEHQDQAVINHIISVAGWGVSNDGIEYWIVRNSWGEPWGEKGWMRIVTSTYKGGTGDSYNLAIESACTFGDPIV

Target: cathepsin Z (mouse (endogenous in testis)) (UniProt Q9WUU7)
Experiment: co-IP; antibody against the partner (anti-STX7, anti-LYZL4, anti-MAP1B, anti-Cathepsin Z, anti-AP1M1, anti-AP2B1, anti-AP3D1; rabbit or mouse control) on protein G beads; mouse testis homogenate in 125 mM KCl, 10 mM EDTA, 20 mM HEPES pH 7.2, supernatant with 1% NP-40 alternative; Western blot for inceptor

B1: insulin inhibitory receptor (inceptor) (receptor, UniProt A2AFS3 36-1009)
chain: FQVTLGTGPELHACKESEYHFEYTACDSTGSRWRVAVPHSPGLCTSLPDPVKGTECSFSCNAGEFLDMKDQSCKPCAEGRYSLGTGIRFDEWDELPHGFASLSANLEVDDSISESTENCTSSKWVPRGDYIASNTDECTATLMYAVNLKQSGTVNFEYYYPDSSIIFEFFVQNDQCQPSADDSRWMKTTEKGWVELNRGNNVLYWRTTAFSVWSKVSKPVLVRNIAITGVAYTSECFPCKPGTYAAKQGSPFCKLCPANYYSNKGETSCHPCDADKYSEKGSSTCKVRPACTDKDYFYTHTACDAQGETQLMYKWAIPKICGEDLEGAVKLPASGVKTRCPPCNPGFFKTDNSTCEPCPYGSYSNGSDCTHCPAGTEPAVGFEYKWWNTLPSNMETTVLSGINFEYKGLTGWEVAGDHIYTAVGASDNDFMILTLVVPGFRPPQSVVADTENKEVARITFVFETICSVNCELYFMVGMNSRTNTPVETWKGTKGKQSYTYTIEENATVSFTWAFQRTTLHETGRKYTNDVAKIYSINVTNVMGGVASYCRPCALEASDLGSSCTSCPAGHYINRDSGTCHLCPSNTILKAHQPYGAQACVPCGPGTKNNKIHSLCYNDCTFSRNTPSRIFNYNFSALAGTVSLAGVPSFTSKGLKYFHHFTLSLCGNQGKKMAVCTDNVTDLRIPDGEAGFSKSVTAYVCQVVIIPSEVMGYKAGVSSQPVSLADRLVGVSTDMTLEGIVSPVELFHPETSGIPDIVFFFRSNDVTQSCSSGRSTTIRLRCNPMKAAPGTLRLPSMCSDGTCDGCNFHFLWESVAACPLCSASDYHTFVSSCVAGIQKTTYMWREPKLCSGGISLPEQRVTICKTIDFWLKVGISAGTCTAILLTVLTCYFWKKNQKLEYKYSKLVMNATLKDCDLPAADSCAIMEGEDVEDDFIFTSKKSLFGKIKSFTSKRTPDGFDSVPLKTSSGGPDMDM
binding: binds
